For test [1], the target named is FLAG-tagged human AP2M1 (human) (UniProt Q96CW1). The experiment in a line: double immunofluorescence colocalisation, confocal microscopy, co-transfected U2OS cells.
The target in test [2] is T1, FLAG-tagged human AP1M1 (human) (UniProt Q9BXS5).
T1 sequence: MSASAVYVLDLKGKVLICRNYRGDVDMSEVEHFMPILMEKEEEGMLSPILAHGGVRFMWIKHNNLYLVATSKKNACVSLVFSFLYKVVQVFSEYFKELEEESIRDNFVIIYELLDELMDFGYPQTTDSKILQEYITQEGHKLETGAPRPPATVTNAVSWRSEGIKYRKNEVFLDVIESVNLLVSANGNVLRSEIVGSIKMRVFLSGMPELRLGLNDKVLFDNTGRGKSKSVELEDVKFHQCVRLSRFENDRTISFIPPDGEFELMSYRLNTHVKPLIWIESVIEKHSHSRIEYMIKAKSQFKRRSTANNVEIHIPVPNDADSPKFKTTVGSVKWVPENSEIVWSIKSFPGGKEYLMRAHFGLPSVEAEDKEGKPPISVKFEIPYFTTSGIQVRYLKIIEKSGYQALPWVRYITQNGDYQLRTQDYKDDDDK
Described as above.

By UniProt entry, the sequences of proteins in these tests, tags left out. Where a name states a change or a piece, a line headed by the entry shows the natural chain unless it says otherwise. Chains listed by the source or under a name are the forms on record and can include a tag or linker.
FLAG-tagged human AP2M1 (Q96CW1, form named): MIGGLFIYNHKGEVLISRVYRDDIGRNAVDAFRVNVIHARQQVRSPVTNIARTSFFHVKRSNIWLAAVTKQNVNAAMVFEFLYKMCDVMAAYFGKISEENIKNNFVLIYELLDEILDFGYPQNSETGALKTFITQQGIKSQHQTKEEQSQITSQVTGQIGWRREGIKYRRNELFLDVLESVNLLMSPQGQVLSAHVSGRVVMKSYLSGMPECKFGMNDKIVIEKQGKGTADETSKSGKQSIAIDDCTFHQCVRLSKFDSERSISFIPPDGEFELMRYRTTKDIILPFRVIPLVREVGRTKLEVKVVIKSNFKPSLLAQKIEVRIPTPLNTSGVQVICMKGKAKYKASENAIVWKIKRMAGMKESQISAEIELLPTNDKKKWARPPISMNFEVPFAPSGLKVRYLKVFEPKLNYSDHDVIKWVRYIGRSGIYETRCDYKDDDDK
UniProt O95751: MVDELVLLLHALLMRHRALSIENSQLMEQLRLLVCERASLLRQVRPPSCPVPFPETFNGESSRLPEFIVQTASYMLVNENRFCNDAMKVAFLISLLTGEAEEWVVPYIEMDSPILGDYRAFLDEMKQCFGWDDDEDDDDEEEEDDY

No constants are given. Whether binding was seen depends on the method and setting. Some results given as binding are weak or reduced against the parent protein; the word gives no strength. For some assays here: Tags and fused reporters may be left off the sequences shown.

Take “V5-tagged human LDOC1 (from UniProt O95751 1-146)”: the binding result in test [1] and in test [2] was “binds” throughout.

These data come from patent US20250110133A1, “METHOD AND KIT FOR PREDICTING DRUG EFFICACY OF LUNG CANCER TREATMENT AND METHOD FOR TREATING LUNG CANCER” (National Health Research Institutes, priority 2023, published 2025).
